# Laboratory results reported in PubChem BioAssay (NCATS).
# Inconclusive results, whose numbers are uncertain, are shown with a selection of clear calls. A potency beside an inconclusive call is a rough fit, not a confirmed value. Active and inactive are the calls of the source. Calls come from the whole dose curve; as a rule, active = well fitted cell-killing curve with a large enough effect; inconclusive = small, poorly fitted or top-dose-only effect, or effect the other way; inactive = no such curve, though single readings can be large or run the other way.
# Tests used:
# [1] = Quantitative High-Throughput drug screen in 47 multiple myeloma cell lines against the NCATS MIPE library collection: L363_DSMZ cell viability assay (AID 1918984); conditions: L363 myeloma viability, CellTiter-Glo ATP luminescence, 48 h; viability (% of control): at 45.8 µM (top of the series); note: nearly all actives have a fitted effect of over 40% in size
# Summary of the method: (§1)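 Cells were exposed to library compounds for 48 hours, after which ATP was measured by CellTiter-Glo. Signal was taken as median relative luminescence units.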
# [2] = Quantitative High-Throughput drug screen in 47 multiple myeloma cell lines against the NCATS MIPE library collection: OCIMY7_PLB cell viability assay (AID 1918987); conditions: OCI-MY7 myeloma viability, CellTiter-Glo ATP, 48 h; viability (% of DMSO): at 45.8 µM (top of the series); note: nearly all actives have a fitted effect of over 65% in size
# Summary of the method: as §1
# [3] = Quantitative High-Throughput drug screen in 47 multiple myeloma cell lines against the NCATS MIPE library collection: OPM1_PLB cell viability assay (AID 1918989); note: nearly all actives have a fitted effect of over 40% in size;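 for viability (% of control): 100% = DMSO-only wells and 0% = media-only wells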
# Summary of the method: as §1
# [4] = Quantitative High-Throughput drug screen in 47 multiple myeloma cell lines against the NCATS MIPE library collection: SKMM1_PLB cell viability assay (AID 1919863); conditions: SKMM1 myeloma viability, CellTiter-Glo ATP, 48 h; viability: hits give low values; note: nearly all actives have a fitted effect of over 35% in size
# Summary of the method: as §1
# [5] = Quantitative High-Throughput drug screen in 47 multiple myeloma cell lines against the NCATS MIPE library collection: XG1_PLB cell viability assay (AID 1919866); note: nearly all actives have a fitted effect of over 35% in size
# Summary of the method: as §1
# [6] = Quantitative High-Throughput drug screen in 47 multiple myeloma cell lines against the NCATS MIPE library collection: OCIMY5_PLB cell viability assay (AID 1918988); conditions: OCI-MY5 myeloma viability, ATP luminescence, 48 h; viability, % of control: at 45.8 µM (top of the series); note: nearly all actives have a fitted effect of over 65% in size;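 for viability, % of control: 100% = DMSO-treated wells and 0% = wells with media alone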
# Summary of the method: as §1
# [7] = Quantitative High-Throughput drug screen in 47 multiple myeloma cell lines against the NCATS MIPE library collection: U266_ATCC cell viability assay (AID 1919864); note: nearly all actives have a fitted effect of over 35% in size
# Summary of the method: as §1
# [8] = Quantitative High-Throughput drug screen in 47 multiple myeloma cell lines against the NCATS MIPE library collection: XG6_PLB cell viability assay (AID 1919865); conditions: XG6 myeloma viability, CellTiter-Glo ATP luminescence, 48 h; viability (% of control): at 45.8 µM (top of the series); note: nearly all actives have a fitted effect of over 40% in size;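 for viability (% of control): 100% = DMSO-only wells and 0% = media-only wells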
# Summary of the method: as §1
# [9] = Quantitative High-Throughput drug screen in 47 multiple myeloma cell lines against the NCATS MIPE library collection: VP6_DJ cell viability assay (AID 1919867); conditions: ATP luminescence, 48 h; viability (% of DMSO): at 45.8 µM (top of the series); note: nearly all actives have a fitted effect of over 40% in size;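 for viability (% of DMSO): 100% = DMSO-only wells and 0% = wells with media alone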
# Summary of the method: as §1
# [10] = Quantitative High-Throughput drug screen in 47 multiple myeloma cell lines against the NCATS MIPE library collection: KMS34_JCRB cell viability assay (AID 1918985); conditions: KMS34 myeloma viability, CellTiter-Glo ATP luminescence, 48 h; viability, percent of control: at 45.8 µM (top of the series); note: nearly all actives have a fitted effect of over 40% in size;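 for viability, percent of control: 100% = DMSO-only wells and 0% = media-only wells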
# Summary of the method: as §1
# Potency is the fitted concentration of half-maximal effect.
smiles,measurement,setting,value
CC[C@@H]([C@H](C)O)n1ncn(-c2ccc(N3CCN(c4ccc(OCC5CO[C@@](Cn6cncn6)(c6ccc(F)cc6F)C5)cc4)CC3)cc2)c1=O (stereo not given in full),Potency,[1],"inconclusive: 3.32 µM [cytotoxic, partial curve, poor fit]"
same,Potency,[2],"inconclusive: 0.0059 µM [rising, full curve, poor fit]"
same,Potency,[3],inactive
same,Potency,[4],"inconclusive: 20.9 µM [cytotoxic, partial curve, poor fit]"
same,Potency,[5],"inconclusive: 18.7 µM [cytotoxic, partial curve]"
CCCNC(=O)Nc1ccc(Oc2ncnc3cc(OC)c(OC)cc23)cc1Cl,Potency,[1],inactive
same,Potency,[2],"inconclusive: 0.148 µM [cytotoxic, full curve, poor fit]"
same,Potency,[6],"inconclusive: 4.69 µM [cytotoxic, partial curve, poor fit]"
same,viability,[4],inactive: 116%
same,Potency,[7],"inconclusive: 0.0066 µM [cytotoxic, full curve, poor fit]"
same,Potency,[8],inactive
same,Potency,[5],inactive
same,Potency,[9],inconclusive: 0.001 µM
COc1ccc2c(Oc3ccc(NC(=O)c4c(C)n(CC(C)(C)O)n(-c5ccccc5)c4=O)nc3)ccnc2c1,Potency,[1],"inconclusive: 37.2 µM [cytotoxic, single point]"
same,Potency,[2],"inconclusive: 14.8 µM [cytotoxic, partial curve, poor fit]"
same,Potency,[4],"inconclusive: 37.2 µM [cytotoxic, single point]"
same,Potency,[7],inactive
same,Potency,[8],"inconclusive: 18.7 µM [cytotoxic, partial curve, poor fit]"
same,Potency,[5],"inconclusive: 37.2 µM [cytotoxic, single point]"
same,Potency,[9],"inconclusive: 7.43 µM [cytotoxic, partial curve, poor fit]"
CCOC(=O)c1ccc(OC(=O)CCCCCN=C(N)N)cc1,Potency,[1],inactive
same,Potency,[2],"inconclusive: 0.418 µM [rising, full curve, poor fit]"
same,Potency,[6],"inconclusive: 0.0166 µM [rising, full curve, poor fit]"
same,viability,[4],inactive: 127%
same,Potency,[7],inactive
same,Potency,[8],inactive
same,Potency,[5],inactive
same,Potency,[9],inactive
N=C1SC(=Cc2ccc(-c3ccc4c(c3)C(=O)NC4=O)o2)C(=O)N1c1ccc(Br)cc1,Potency,[1],inactive
same,Potency,[2],"inconclusive: 16.6 µM [cytotoxic, partial curve, poor fit]"
same,Potency,[3],"inconclusive: 1.18 µM [cytotoxic, full curve, poor fit]"
same,Potency,[7],"inconclusive: 33.2 µM [cytotoxic, single point]"
same,Potency,[5],active: 2.35 µM
same,Potency,[9],"inconclusive: 3.32 µM [cytotoxic, partial curve, poor fit]"
O=C(OCC#CCSc1nnc(-c2cccc3ccccc23)o1)c1cc2ccccc2s1,Potency,[1],inactive
same,Potency,[2],inactive
same,Potency,[6],"inconclusive: 16.6 µM [cytotoxic, partial curve, poor fit]"
same,Potency,[4],"inconclusive: 37.2 µM [cytotoxic, single point]"
same,Potency,[5],inactive
same,Potency,[9],inactive
O=c1[nH]c(=O)n([C@H]2C[C@@H](O)[C@@H](CO)O2)cc1I,Potency,[1],"inconclusive: 5.9 µM [cytotoxic, partial curve]"
same,Potency,[2],"inconclusive: 10.5 µM [cytotoxic, partial curve, poor fit]"
same,Potency,[6],inactive
same,viability,[4],inactive: 119%
same,Potency,[7],"inconclusive: 0.148 µM [rising, full curve]"
same,Potency,[8],inactive
same,Potency,[9],inactive
C[C@]12CCC3c4ccc(O)cc4CCC3C1CCC2=O (stereo not given in full),Potency,[1],"inconclusive: 0.0023 µM [cytotoxic, full curve, poor fit]"
same,Potency,[2],"inconclusive: 2.35 µM [cytotoxic, full curve, poor fit]"
same,Potency,[3],"inconclusive: 0.935 µM [cytotoxic, full curve, poor fit]"
same,Potency,[4],"inconclusive: 37.2 µM [cytotoxic, single point]"
same,Potency,[9],"inconclusive: 3.32 µM [cytotoxic, partial curve, poor fit]"
CN1CCC(=C2c3ccccc3C=Cc3ccccc32)CC1,Potency,[1],"inconclusive: 23.5 µM [cytotoxic, partial curve, poor fit]"
same,Potency,[2],active: 5.9 µM
same,Potency,[4],"inconclusive: 20.9 µM [cytotoxic, partial curve, poor fit]"
same,Potency,[9],active: 16.6 µM
CC1CCC(C(=O)N(c2cc(C#CC(C)(C)C)sc2C(=O)O)C2CCC(O)CC2)CC1 (stereo not given),Potency,[1],inactive
same,Potency,[6],"inconclusive: 29.6 µM [cytotoxic, single point]"
same,Potency,[3],"inconclusive: 20.9 µM [cytotoxic, partial curve, poor fit]"
same,Potency,[4],"inconclusive: 0.0026 µM [cytotoxic, full curve, poor fit]"
same,Potency,[8],"inconclusive: 23.5 µM [cytotoxic, partial curve]"
same,Potency,[5],"inconclusive: 20.9 µM [cytotoxic, partial curve]"
same,Potency,[9],active: 26.4 µM
CC1(C)S[C@H]2[C@H](NC(=O)[C@@H](N)c3ccc(O)cc3)C(=O)N2[C@@H]1C(=O)O,Potency,[10],"inconclusive: 18.7 µM [cytotoxic, partial curve, poor fit]"
same,Potency,[2],active: 3.72 µM
same,Potency,[6],"inconclusive: 20.9 µM [cytotoxic, partial curve, poor fit]"
same,Potency,[3],"inconclusive: 4.69 µM [cytotoxic, partial curve, poor fit]"
CCn1c(C(=O)N(C2CC2)C2CC2)cc2c3c(ncn3C)c(Nc3cc(C)n(C)n3)nc21,Potency,[1],"inconclusive: 4.69 µM [cytotoxic, partial curve, poor fit]"
same,viability,[4],inactive: 128%
same,Potency,[7],"inconclusive: 0.003 µM [rising, full curve]"
same,Potency,[5],"inconclusive: 9.35 µM [cytotoxic, full curve]"
Cc1nc(Nc2n[nH]c3c2CN(C(=O)N[C@H](CN(C)C)c2ccccc2)C3(C)C)c2sccc2n1,Potency,[1],"inconclusive: 0.0025 µM [cytotoxic, full curve]"
same,Potency,[4],active: 0.743 µM
NC(=O)OCC(COC(N)=O)c1ccccc1,Potency,[10],inactive
same,Potency,[2],inconclusive: 0.001 µM [cytotoxic]
same,Potency,[6],"inconclusive: 37.2 µM [cytotoxic, single point]"
same,Potency,[3],inconclusive: 0.001 µM
same,Potency,[4],"inconclusive: 0.662 µM [cytotoxic, full curve, poor fit]"
same,Potency,[7],active: 10.5 µM
same,Potency,[5],inactive
same,Potency,[9],"inconclusive: 0.0093 µM [rising, full curve, poor fit]"
N[C@H]1CN(c2c(F)cc3c(=O)c(C(=O)O)cn(C4C[C@@H]4F)c3c2Cl)CC12CC2 (stereo not given in full),Potency,[1],inactive
same,Potency,[2],inactive
same,Potency,[4],"inconclusive: 3.72 µM [cytotoxic, partial curve, poor fit]"
same,Potency,[7],"inconclusive: 0.003 µM [cytotoxic, full curve, poor fit]"
same,Potency,[9],inactive
CCOc1ccc(Nc2nc(-c3c(C)nc4ccccn34)cs2)cc1,Potency,[1],"inconclusive: 0.0013 µM [cytotoxic, full curve]"
same,Potency,[2],"inconclusive: 0.235 µM [cytotoxic, partial curve, poor fit]"
same,Potency,[9],"inconclusive: 0.0026 µM [cytotoxic, full curve, poor fit]"
CC[C@H](CO)Nc1nc(NCc2ccccc2)c2ncn(C(C)C)c2n1,Potency,[1],"inconclusive: 10.5 µM [cytotoxic, partial curve, poor fit]"
same,Potency,[6],active: 18.7 µM
same,Potency,[3],active: 23.5 µM
same,Potency,[4],"inconclusive: 33.2 µM [cytotoxic, single point]"
CC[C@@H]1C=C(C)C[C@H](C)C[C@H](OC)[C@H]2O[C@@](O)(C(=O)C(=O)N3CCCC[C@@H]3C(=O)O[C@H](C(C)=C[C@@H]3CC[C@H](Cl)[C@H](OC)C3)[C@H](C)[C@@H](O)CC1=O)[C@H](C)C[C@H]2OC,Potency,[1],active: 10.5 µM
same,Potency,[3],"inconclusive: 23.5 µM [cytotoxic, single point]"
same,Potency,[4],"inconclusive: 23.5 µM [cytotoxic, single point]"
same,Potency,[8],"inconclusive: 1.48 µM [cytotoxic, full curve]"
same,Potency,[5],active: 14.8 µM
same,Potency,[9],"inconclusive: 33.2 µM [cytotoxic, single point]"
Nc1nc2[nH]cc(CCc3ccc(C(=O)N[C@@H](CCC(=O)O)C(=O)O)cc3)c2c(=O)[nH]1,Potency,[1],"inconclusive: 16.6 µM [cytotoxic, partial curve, poor fit]"
same,Potency,[2],inactive
same,Potency,[7],"inconclusive: 8.33 µM [cytotoxic, partial curve, poor fit]"
same,Potency,[9],"inconclusive: 0.0332 µM [rising, full curve, poor fit]"
CN1N=C(N)c2cn([C@@H]3O[C@H](COP(=O)(O)O)[C@@H](O)[C@@H]3O)c3ncnc1c23,Potency,[1],"inconclusive: 37.2 µM [rising, single point]"
same,Potency,[8],"inconclusive: 1.48 µM [cytotoxic, partial curve, poor fit]"
same,Potency,[5],inconclusive: 0.001 µM [cytotoxic]
same,Potency,[9],"inconclusive: 0.372 µM [cytotoxic, full curve]"
COc1ccc(-c2oc3c(CC=C(C)C)c(OC4O[C@H](CO)[C@@H](O)[C@H](O)[C@@H]4O)cc(O)c3c(=O)c2OC2O[C@@H](C)[C@H](O)[C@@H](O)[C@@H]2O)cc1 (stereo not given in full),Potency,[1],active: 13.2 µM
same,Potency,[6],active: 20.9 µM
same,Potency,[7],"inconclusive: 33.2 µM [cytotoxic, single point]"

# Two entries from above, as tab-separated lines.
smiles	measurement	setting	value
CC[C@@H]([C@H](C)O)n1ncn(-c2ccc(N3CCN(c4ccc(OCC5CO[C@@](Cn6cncn6)(c6ccc(F)cc6F)C5)cc4)CC3)cc2)c1=O (stereo not given in full)	Potency	[2]	inconclusive: 0.0059 µM [rising, full curve, poor fit]
same	Potency	[3]	inactive

# Reprinted at random: 3 entries already listed
smiles,measurement,setting,value
CC1CCC(C(=O)N(c2cc(C#CC(C)(C)C)sc2C(=O)O)C2CCC(O)CC2)CC1 (stereo not given),Potency,[4],"inconclusive: 0.0026 µM [cytotoxic, full curve, poor fit]"
CC[C@@H]1C=C(C)C[C@H](C)C[C@H](OC)[C@H]2O[C@@](O)(C(=O)C(=O)N3CCCC[C@@H]3C(=O)O[C@H](C(C)=C[C@@H]3CC[C@H](Cl)[C@H](OC)C3)[C@H](C)[C@@H](O)CC1=O)[C@H](C)C[C@H]2OC,Potency,[5],active: 14.8 µM
CC1CCC(C(=O)N(c2cc(C#CC(C)(C)C)sc2C(=O)O)C2CCC(O)CC2)CC1 (stereo not given),Potency,[6],"inconclusive: 29.6 µM [cytotoxic, single point]"
